# The other results are listed elsewhere or left out. Further columns of the screen follow, without active or inactive calls. Compounds called inactive in the main read-out are mostly missing here. Words in brackets tell the shape of the fitted curve; partial curves, single points and poor fits give uncertain potencies.
# Assay: qHTS Assay for Modulators of Lamin A Splicing
# Conditions: HeLa LMNA splicing GFP/RFP minigene ratio, 48 h
# Procedure, shortened: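 Read-out is the ratio of GFP to DsRed2 object intensity, acquired by 488 nm laser-scanning cytometry on HeLa lamin A-EGFP minigene reporter cells. Compound incubation 48 hrs at 37 °C in Opti-MEM with 2% FBS; DMSO 0.5% final.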
# [1] = measured here: GFP splicing reporter channel
# [2] = measured here: RFP viability control channel
compound,measurement,setting,value
O=C(Cn1c(O)c(/C=C2\C=Nc3ccc(Br)cc32)sc1=O)N1CCCC1,AC50,[1],"28.2 µM [rising, single point]"
Cc1ccc(SCc2[nH]nc3c2C2(C(=O)Nc4ccc(F)cc42)C(C#N)=C(N)O3)cc1 (stereo unspecified),AC50,[2],"17.8 µM [rising, single point]"
O=S(=O)(c1ccc(Br)s1)N1CCN(c2ccccc2)CC1,AC50,[2],"11.2 µM [rising, single point]"
COc1ccc(COC(=O)N/N=C(\C)CC(=O)Nc2ccc(Cl)cc2)cc1,AC50,[1],"5.01 µM [falling, partial curve, poor fit]"
same,AC50,[2],"3.16 µM [falling, partial curve]"
O=C(Cc1ccc(-n2c(=O)c3ccccc3n(Cc3ccccc3Cl)c2=O)cc1)NCC1CCCO1 (stereo unspecified),AC50,[2],"44.7 µM [falling, partial curve]"
COc1ccc(C2=Nn3c(nnc3-c3ccccn3)SC2)cc1,AC50,[2],"11.2 µM [rising, partial curve]"
COc1ccc(Cn2nnnc2C(c2cccs2)N2CCN(c3ccccc3)CC2)cc1 (stereo unspecified),AC50,[1],"11.2 µM [rising, single point]"
CC[C@@H]1OC(=O)[C@H](C)[C@H](O[C@@H]2C[C@](C)(OC)[C@H](O)[C@H](C)O2)[C@H](C)[C@H](O[C@@H]2O[C@@H](C)C[C@@H](N(C)C)[C@@H]2O)[C@](C)(O)C[C@H](C)C(=NOCOCCOC)[C@H](C)[C@H](O)[C@]1(C)O,AC50,[1],"0.2 µM [falling, partial curve, poor fit]"
same,AC50,[2],"3.16 µM [falling, single point]"
Cc1ccc(Cl)cc1N1CCN(C(=O)CCS(=O)(=O)c2ccc3c(c2)oc(=O)n3C)CC1,AC50,[1],"3.55 µM [falling, partial curve, poor fit]"
same,AC50,[2],"7.94 µM [falling, full curve]"
Cc1cccc(CN2CCN(C(c3ccccc3)c3ccc(Cl)cc3)CC2)c1 (stereo unspecified),AC50,[1],"28.2 µM [rising, partial curve]"
same,AC50,[2],"12.6 µM [rising, partial curve]"
CCC(=O)N1c2ccccc2CC1C(=O)N1CCN(c2ccccc2F)CC1 (stereo unspecified),AC50,[1],"0.0316 µM [rising, full curve, poor fit]"
COc1cnc(NS(=O)(=O)c2ccc(N)cc2)nc1,AC50,[1],"7.94 µM [falling, single point]"
same,AC50,[2],"12.6 µM [falling, single point]"
CCOC(=O)C1CCN(c2ncnc3c2c(-c2ccccc2)cn3-c2ccc(Cl)cc2)CC1,AC50,[1],"2.24 µM [falling, single point]"
CN(C)c1cc[n+](CC(=O)N2c3ccccc3Sc3ccccc32)cc1,AC50,[2],"25.1 µM [rising, single point]"
CC1CC(C)CN(C(=O)c2ccc(CSc3nc4ccncc4[nH]3)cc2)C1 (stereo unspecified),AC50,[2],"12.6 µM [rising, partial curve]"
Fc1cccc(Nc2cc(-n3cccn3)ncn2)c1,AC50,[1],"7.94 µM [rising, partial curve]"
same,AC50,[2],"11.2 µM [rising, partial curve]"
Cc1cccc(NCCC(=O)c2ccc(Br)cc2)c1,AC50,[1],"35.5 µM [falling, single point]"
same,AC50,[2],"35.5 µM [falling, single point]"
CCOc1ccc(-c2cc(C(=O)O)c3ccccc3n2)c(OCC)c1,AC50,[2],"10 µM [rising, partial curve]"
Cc1ccccc1NC(=O)C(=Cc1ccc(C(=O)O)cc1)C(=O)Nc1ccccc1C,AC50,[1],"0.708 µM [falling, full curve, poor fit]"
COc1cccc(OC)c1OCCOc1ccc(C(=O)c2ccccc2)cc1,AC50,[1],"0.0891 µM [rising, full curve, poor fit]"
same,AC50,[2],"0.0794 µM [rising, full curve, poor fit]"
Cn1cc(-c2nc3cncnc3n(CCN)c2=O)c2ccccc21,AC50,[1],"10 µM [falling, partial curve, poor fit]"
CCc1ccc(CN(C)Cc2nc(COc3ccccc3)no2)nc1,AC50,[1],"11.2 µM [falling, partial curve]"
same,AC50,[2],"7.94 µM [falling, partial curve, poor fit]"
CCc1cc2c(-c3ccccc3)cc(=O)oc2c(CN2CCOCC2)c1O,AC50,[2],"35.5 µM [rising, single point]"
CC(C)(C)C(=O)Nc1nnc(SCc2ccc(F)cc2)s1,AC50,[2],"35.5 µM [rising, single point]"
CCC1CCCCN1C(=O)c1c(-c2ccccc2)noc1C (stereo unspecified),AC50,[2],"35.5 µM [rising, single point]"
COc1cc(-c2c(C#N)c(N)nc(SCc3ccncc3)c2C#N)cc(OC)c1OC,AC50,[1],"10 µM [rising, partial curve]"
same,AC50,[2],"14.1 µM [rising, partial curve]"
O=C(O)CCC(=O)Nc1ccc(S(=O)(=O)Nc2nccs2)cc1,AC50,[1],"0.00251 µM [falling, full curve, poor fit]"
same,AC50,[2],"0.00316 µM [falling, full curve, poor fit]"
COc1cc(NC(=O)C2Cc3ccccc3N2C(=O)c2ccccc2)cc(OC)c1 (stereo unspecified),AC50,[2],"31.6 µM [rising, partial curve, poor fit]"
CC(CNC(=O)CCCn1c(=O)c2cccn2c2ccc(F)cc21)c1ccccc1 (stereo unspecified),AC50,[1],"4.47 µM [rising, partial curve]"
COc1ccc(C(=O)NC(=S)NCc2ccccc2)cc1OC,AC50,[2],"0.178 µM [falling, full curve, poor fit]"
COC1CCCCC1Nc1ccc(C)c(C)c1 (stereo unspecified),AC50,[2],"5.01 µM [falling, partial curve, poor fit]"
O=C1C2C=CC=CC2=NC(=S)N1CCN1CCC(=C(c2ccc(F)cc2)c2ccc(F)cc2)CC1 (stereo unspecified),AC50,[1],"0.002 µM [falling, full curve, poor fit]"
same,AC50,[2],"0.002 µM [falling, full curve, poor fit]"
CCN(C(=O)CCc1nc(-c2ccc(OC)cc2)no1)c1cc(OC)ccc1OC,AC50,[1],"35.5 µM [rising, single point]"
same,AC50,[2],"35.5 µM [rising, single point]"
COc1ccc(N2CCN(c3ncnc4c3nnn4C)CC2)cc1,AC50,[2],"4.47 µM [falling, full curve, poor fit]"
O=C1CSC(=S)N1/N=C/C=C/c1ccccc1,AC50,[1],"3.16 µM [rising, single point]"
CC1(C)Cc2c(sc3[nH]c(=S)n(Cc4ccco4)c(=O)c23)CO1,AC50,[1],"35.5 µM [falling, single point]"
CC(=O)c1c(C)[nH]c(C(=O)NCc2ccccc2Cl)c1C,AC50,[2],"35.5 µM [rising, single point]"
CS(=O)(=O)N(CC(O)CON=C1c2ccccc2-c2ccccc21)c1ccc(F)cc1 (stereo unspecified),AC50,[2],"11.2 µM [rising, single point]"
Cc1ccc(OCC(=O)N2CCN(c3nnc(-c4ccc(C)cc4)c4ccccc34)CC2)cc1,AC50,[1],"22.4 µM [falling, single point]"
same,AC50,[2],"14.1 µM [falling, partial curve]"
COc1ccccc1NC(=O)C1CCCCN1S(=O)(=O)c1ccc(F)cc1 (stereo unspecified),AC50,[1],"10 µM [rising, partial curve]"
same,AC50,[2],"17.8 µM [rising, single point]"
CCc1cccc(C)c1NC(=O)COC(=O)Cc1ccsc1,AC50,[1],"3.55 µM [falling, full curve, poor fit]"
same,AC50,[2],"2.51 µM [falling, full curve, poor fit]"
Cc1ccc(-n2nc(C)cc2Nc2ncc(Cl)cc2Cl)cc1,AC50,[2],"31.6 µM [rising, single point]"
O=C(NCCc1c[nH]c2ccccc12)[C@@H]1C[C@H]1[C@@H](NP(=O)(c1ccccc1)c1ccccc1)c1ccccc1,AC50,[2],"11.2 µM [rising, partial curve]"
CC1Cc2ccccc2N1C(=O)c1cc2sccc2n1Cc1ccc(F)cc1 (stereo unspecified),AC50,[2],"17.8 µM [rising, single point]"
CCOC(=O)c1ccc(NC(=S)N2CCN(CCN=CC3=C(O)CC(C)(C)CC3=O)CC2)cc1,AC50,[1],"1.78 µM [falling, single point]"
same,AC50,[2],"2.82 µM [falling, single point]"
CCn1cc(C(=O)O)c(=O)c2cc(F)c(N3CCN(C(=S)NC(=O)c4ccc(Br)cc4)CC3)cc21,AC50,[1],"0.891 µM [falling, full curve, poor fit]"
Cc1ccc(C(=O)C2=C(O)C(=O)N(Cc3ccccc3)C2c2cccnc2)o1 (stereo unspecified),AC50,[2],"11.2 µM [rising, partial curve]"
Cc1cc(C(=O)NCCCn2ccnc2)sc1-c1ccccc1,AC50,[2],"0.0794 µM [rising, full curve]"
N/C(=N\OC(=O)c1cc(Br)ccc1Cl)c1cccnc1,AC50,[2],"11.2 µM [falling, partial curve, poor fit]"
CC(C)(C)NC(=O)CSc1ncnc2c1nnn2Cc1ccccc1Cl,AC50,[2],"35.5 µM [falling, single point]"
O=C(CN1C(=O)C2C3C=CC(C3)C2C1=O)Nc1nc(SCc2ccc(Cl)cc2)n[nH]1 (stereo unspecified),AC50,[2],"22.4 µM [rising, single point]"
O=C(Nc1nc(-c2ccc(-c3ccccc3)cc2)cs1)C1CCCO1 (stereo unspecified),AC50,[2],"12.6 µM [rising, partial curve, poor fit]"
COc1ccc(-c2nc(Cn3c(SCc4ccccc4F)nc4cccnc43)c(C)o2)cc1,AC50,[2],"35.5 µM [rising, partial curve, poor fit]"
Cc1cccc2sc(N(Cc3cccnc3)C(=O)C3COc4ccccc4O3)nc12 (stereo unspecified),AC50,[1],"0.00316 µM [falling, full curve, poor fit]"

# Shown tab-delimited: part of the list above
compound	measurement	setting	value
Cc1ccc(Cl)cc1N1CCN(C(=O)CCS(=O)(=O)c2ccc3c(c2)oc(=O)n3C)CC1	AC50	[2]	7.94 µM [falling, full curve]
CC1Cc2ccccc2N1C(=O)c1cc2sccc2n1Cc1ccc(F)cc1 (stereo unspecified)	AC50	[2]	17.8 µM [rising, single point]
Cc1cc(C(=O)NCCCn2ccnc2)sc1-c1ccccc1	AC50	[2]	0.0794 µM [rising, full curve]

# Random excerpt: 2 entries already listed
compound,measurement,setting,value
Cc1ccc(C(=O)C2=C(O)C(=O)N(Cc3ccccc3)C2c2cccnc2)o1 (stereo unspecified),AC50,[2],"11.2 µM [rising, partial curve]"
Cc1ccc(-n2nc(C)cc2Nc2ncc(Cl)cc2Cl)cc1,AC50,[2],"31.6 µM [rising, single point]"
